Assay results taken from paper PMC11782658.
Results are given in words; binding and its absence hold for the method and conditions named. Binding seen in cells or lysates may run through a third protein. These calls come from enrichment with a bait or labelling near it, and not all partners need be listed.

Target: T1, lysine methyltransferase 9 alpha (KMT9α), endogenous (human (endogenous in PC-3M and DU145)) (UniProt Q9Y5N5)
T1 sequence: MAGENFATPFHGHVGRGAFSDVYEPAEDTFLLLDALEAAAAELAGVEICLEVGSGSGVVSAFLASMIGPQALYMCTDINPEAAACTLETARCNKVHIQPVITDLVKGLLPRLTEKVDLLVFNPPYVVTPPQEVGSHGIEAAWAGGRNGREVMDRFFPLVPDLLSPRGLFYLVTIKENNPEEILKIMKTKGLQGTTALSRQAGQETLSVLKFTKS
Test: affinity purification with mass spectrometry; total cell lysate of PC-3M cells, immunoprecipitation with anti-KMT9α, IgG as negative control; on-bead trypsin digest, LC-MS/MS; partners at FDR < 0.05; intersected with human MitoCarta 3.0

Row | Binder | binding
1 | pyruvate dehydrogenase E1 subunit PDHB, endogenous (enzyme, UniProt P11177 31-359) LQVTVRDAINQGMDEELERDEKVFLLGEEVAQYDGAYKVSRGLWKKYGDKRIIDTPISEMGFAGIAVGAAMAGLRPICEFMTFNFSMQAIDQVINSAAKTYYMSGGLQPVPIVFRGPNGASAGVAAQHSQCFAAWYGHCPGLKVVSPWNSEDAKGLIKSAIRDNNPVVVLENELMYGVPFEFPPEAQSKDFLIPIGKAKIERQGTHITVVSHSRPVGHCLEAAAVLSKEGVECEVINMRTIRPMDMETIEASVMKTNHLVTVEGGWPQFGVGAEICARIMEGPAFNFLDAPAVRVTGADVPMPYAKILEDNSIPQVKDIIFAIKKTLNI | binds
2 | pyruvate dehydrogenase complex component X (PDHX), endogenous (protein, UniProt O00330 54-501) GDPIKILMPSLSPTMEEGNIVKWLKKEGEAVSAGDALCEIETDKAVVTLDASDDGILAKIVVEEGSKNIRLGSLIGLIVEEGEDWKHVEIPKDVGPPPPVSKPSEPRPSPEPQISIPVKKEHIPGTLRFRLSPAARNILEKHSLDASQGTATGPRGIFTKEDALKLVQLKQTGKITESRPTPAPTATPTAPSPLQATAGPSYPRPVIPPVSTPGQPNAVGTFTEIPASNIRRVIAKRLTESKSTVPHAYATADCDLGAVLKVRQDLVKDDIKVSVNDFIIKAAAVTLKQMPDVNVSWDGEGPKQLPFIDISVAVATDKGLLTPIIKDAAAKGIQEIADSVKALSKKARDGKLLPEEYQGGSFSISNLGMFGIDEFTAVINPPQACILAVGRFRPVLKLTEDEEGNAKLQQRQLITVTMSSDSRVVDDELATRFLKSFKANLENPIRLA | binds
